Results taken from PubChem BioAssay AID493014 (National Center for Advancing Translational Sciences (NCATS), 2011).
This is one part of the list. Further columns of the screen follow, without active or inactive calls. Compounds called inactive in the main read-out are mostly missing here. The note in brackets gives the kind of curve behind each potency; many fits are weak.

Assay: qHTS Assay to Find Inhibitors of Chronic Active B-Cell Receptor Signaling
Settings: ABC-DLBCL IkBa-CBG/CBR reporter, luminescence ratio (green luciferase fused to IkBa over red control in TMD8 lymphoma cells), 4 h
In short: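 TMD8 human ABC-DLBCL cells with doxycycline-inducible IκBα–green luciferase fusion and unfused red luciferase, in 0.5% FBS medium; compounds up to 46 uM, 4 h at 37C. Green/red luminescence ratio, filter-overlap corrected, fitted to concentration-response curves.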

[1] = measured here: CBR red luminescence, cell number
[2] = measured here: IkBa-CBG green luminescence

Cc1ccc(S(=O)(=O)c2nc(-c3ccccc3Cl)oc2N(C)C2CCN(C)CC2)cc1
AC50 [1]: 14.6 µM [falling, single point]

COCCO[C@H]1CCC2C3CC=C4C[C@@H](O)CC[C@]4(C)C3CC[C@@]21C (some centres undefined)
AC50 [1]: 25.9 µM [rising, single point]

CC/C(=N\Nc1ccccc1)c1c(O)n(C)c(=O)n(C)c1=O
AC50 [1]: 10.3 µM [falling, partial curve, poor fit]

O=C1c2ccccc2C(=O)N1SC1CCCCC1
AC50 [1]: 22.4 µM [falling, single point]

CC(C)CCCn1c(O)c(/C=C2/C=CC=N2)c(=O)[nH]c1=O
AC50 [1]: 16.4 µM [rising, partial curve] | AC50 [2]: 20.6 µM [falling, partial curve, poor fit]

CC(C)=CCC12CN3CCN(CC(C3)C1=O)C2
AC50 [1]: 7.31 µM [falling, single point]

COC(=O)C(C)n1nnc2sc(-c3ccccc3)cc2c1=O (centres undefined)
AC50 [1]: 10 µM [falling, partial curve, poor fit]

O=C(Nc1ccc(OC(F)(F)F)cc1)Oc1ccccc1N1CCOCC1
AC50 [1]: 35.5 µM [falling, single point]

CC(C)Sc1ncnc2c1oc1ccccc12
AC50 [1]: 14.1 µM [rising, single point]

Cc1ccccc1N1C(=O)NC(=O)/C(=C\c2cnn(-c3ccccc3)c2)C1=O
AC50 [1]: 20.6 µM [rising, partial curve]

COc1ccc(CC(C)NC2CCCCCC2)cc1 (centres undefined)
AC50 [1]: 11.2 µM [rising, single point]

Cc1cc(C)cc(N2C(=O)NC(=O)/C(=C\c3cccn3-c3ccccc3)C2=O)c1
AC50 [1]: 29.1 µM [rising, single point]

O=C(C[N+]12CCC(CC1)C(O)C2)c1ccc(Br)cc1 (centres undefined)
AC50 [1]: 0.501 µM [rising, full curve, poor fit]

Cn1c(=O)oc2cc(S(=O)(=O)N3CCC(C(=O)N4CCN(c5ccc(F)cc5)CC4)CC3)ccc21
AC50 [1]: 15.8 µM [falling, partial curve, poor fit]

CCOP(=O)(OCC)C(NC(=O)c1cccc([N+](=O)[O-])c1)C(Cl)(Cl)Cl (centres undefined)
AC50 [1]: 6.31 µM [rising, single point]

O=c1oc(-c2ccc(Cl)c(Cl)c2)nn1-c1ccc(C(F)(F)F)cn1
AC50 [1]: 2 µM [rising, partial curve, poor fit]

COc1ccc(NC(=O)N2CCC3(CC2)OCCO3)cc1
AC50 [1]: 31.6 µM [rising, single point]

CCC1CCCCN1CC(=O)c1ccc(OC(F)F)cc1 (centres undefined)
AC50 [1]: 29.1 µM [rising, single point] | AC50 [2]: 29.1 µM [falling, single point]

CCC(=NCCOc1ccc(Cl)cc1)c1c(O)n(C)c(=O)n(C)c1=O
AC50 [1]: 20.6 µM [falling, partial curve, poor fit]

COc1ccc2c(c1)c(C(=O)CN1CCC3(CC1)OCCO3)c(C)n2Cc1ccccc1
AC50 [1]: 0.126 µM [rising, full curve, poor fit]

CCCCOc1ccc(CN2CCN(CCO)CC2)cc1
AC50 [1]: 29.1 µM [rising, single point]

O=c1c(/C=N/N2CCOCC2)c(O)n(-c2ccccc2)c(=S)n1-c1ccccc1
AC50 [1]: 25.9 µM [falling, single point]

CC(C)OC1CCCC(O)C1CC(=O)O (centres undefined)
AC50 [1]: 14.1 µM [rising, single point]

C=CCN1C(=O)C2(C(C(=O)OCC)=C(N)Oc3ccccc32)c2c1c1ccccc1oc2=O (centres undefined)
AC50 [1]: 0.461 µM [falling, partial curve]

O=c1[nH]c(=O)n(-c2ccccc2F)c(O)c1/C=C1\C=Nc2ccccc21
AC50 [1]: 35.5 µM [rising, single point] | AC50 [2]: 31.6 µM [falling, single point]

NCCNc1ccc([N+](=O)[O-])c2cccnc12
AC50 [1]: 11.2 µM [falling, partial curve, poor fit]

Cn1cccc1/C=C1\C(=O)NC(=O)N(CCC2=CCCCC2)C1=O
AC50 [1]: 6.51 µM [rising, single point]

Cc1nc2ccccc2c(=O)n1-c1cccc(O)c1
AC50 [1]: 29.1 µM [rising, single point]

O=C1NC(=O)C(=Cc2ccc(Sc3ccccc3)o2)C(=O)N1
AC50 [1]: 31.6 µM [rising, single point]

COC(=O)c1ccc2nc(NC(=O)C3CCCCC3)sc2c1
AC50 [1]: 0.708 µM [falling, full curve, poor fit]

COC(=O)C(O)(c1ccc(NC(=O)Oc2ccccc2)cc1)C(F)(F)F (centres undefined)
AC50 [1]: 16.4 µM [rising, single point]

CN1C(=O)C(=CN2CCN(C(=O)c3ccco3)CC2)C(=O)N(C)C1=S
AC50 [1]: 29.1 µM [falling, single point]

COc1ccc(C2=CC(c3ccc(OC)c(OC)c3)c3c(c4ccccc4oc3=O)O2)cc1OC (centres undefined)
AC50 [1]: 12.6 µM [falling, partial curve, poor fit] | AC50 [2]: 12.6 µM [falling, single point]

O=c1oc2ccccc2n1Cc1cccc(Cl)c1
AC50 [1]: 6.31 µM [falling, single point]

Cn1c(O)c(C(=NCCN2CCCCC2)c2ccccc2Cl)c(=O)n(C)c1=O
AC50 [1]: 35.5 µM [rising, single point]

O=C1NC(=O)C(=Cc2ccc(N3CCN(C(=O)c4ccccc4)CC3)c([N+](=O)[O-])c2)C(=O)N1
AC50 [1]: 5.62 µM [falling, partial curve, poor fit]

O=C(c1ccccc1)c1ccccc1N=Cc1c(O)[nH]c(=O)[nH]c1=O
AC50 [1]: 3.55 µM [rising, full curve]

O=C(c1ccc(F)cc1Cl)N1CCC2(CC1)OCCO2
AC50 [1]: 0.0891 µM [rising, full curve, poor fit]

COc1cc(Cn2c(N)c(C(=O)NCc3ccco3)c3nc4ccccc4nc32)cc(OC)c1OC
AC50 [1]: 2.31 µM [rising, partial curve] | AC50 [2]: 3.66 µM [falling, single point]

COC(=O)C1=C(c2ccc(-c3ccccc3)c(F)c2)C[C@@H]2CC[C@H]1N2C(=O)NCCOc1ccccc1
AC50 [1]: 25.9 µM [falling, single point]

CN(C)C(=O)N1CCN(c2nc(-c3ccccc3)cs2)CC1
AC50 [1]: 1.58 µM [rising, partial curve]

CN(C)C(=O)Nc1cccc(OC(=O)N(C)C)c1
AC50 [1]: 0.146 µM [rising, full curve, poor fit]

Cc1ccc2c(c1)C1CN(C)CCC1N2C(=O)c1cccs1 (centres undefined)
AC50 [1]: 1 µM [rising, partial curve, poor fit]

COC(=O)NC(=C(Cl)Cl)P(=O)(c1ccccc1)c1ccccc1
AC50 [1]: 35.5 µM [rising, partial curve, poor fit]

COC(=O)C1=C(c2ccc(F)cc2F)C[C@@H]2CC[C@H]1N2C(=O)NCCOc1ccc(OC)cc1
AC50 [1]: 0.517 µM [falling, full curve, poor fit]

CC(C)(C)OC(=O)c1c(N)n(Cc2ccco2)c2nc3ccccc3nc12
AC50 [1]: 1.16 µM [falling, full curve, poor fit] | AC50 [2]: 1.84 µM [rising, partial curve, poor fit]

c1ccc2nc(OCCN3CC3)ccc2c1
AC50 [1]: 17.8 µM [rising, single point]

O=P(OCC(F)(F)C(F)F)(N1CCCCC1)N1CCCCC1
AC50 [1]: 20.6 µM [rising, single point]

CCCCn1c(=O)c(C(=O)Nc2nc3ccccc3[nH]2)c(O)c2ccccc21
AC50 [1]: 0.231 µM [falling, full curve]

Cc1cccc(Cn2cccc(C(=O)Nc3cc(C)on3)c2=O)c1
AC50 [1]: 0.0891 µM [falling, full curve, poor fit]

COc1ccc(C(=O)N2CCCC2=O)cc1
AC50 [1]: 22.4 µM [rising, single point]

COc1cc(CC2(CCc3ccncc3)C(=O)NC(=O)NC2=O)cc(OC)c1OC
AC50 [1]: 7.08 µM [rising, partial curve]

COc1nc(NC(C)C)nc(NC(C)C)n1
AC50 [1]: 29.1 µM [rising, single point]

COc1ccc(CCNCc2ccsc2)cc1OC
AC50 [1]: 12.6 µM [falling, partial curve]

CN(C)C1(CNC(=O)Nc2ccc(Cl)c(Cl)c2)CCCCC1
AC50 [1]: 11.2 µM [falling, partial curve, poor fit]

COP(=O)(/C=C(\Cl)c1ccccc1)/C=C(\Cl)c1ccccc1
AC50 [1]: 17.8 µM [rising, partial curve]

c1ccc2c(c1)oc1c(NCc3ccc4c(c3)OCO4)ncnc12
AC50 [1]: 12.6 µM [falling, single point]

CC[C@H](OC(C)=O)C(C[C@H](C)N(C)C)(c1ccccc1)c1ccccc1
AC50 [1]: 29.1 µM [falling, single point]

COC(=O)C1=C(c2ccc(OCc3ccccc3)cc2)C[C@@H]2CC[C@H]1N2C(=O)NCc1ccc(OC)c(OC)c1
AC50 [1]: 9.2 µM [falling, partial curve] | AC50 [2]: 5.17 µM [rising, partial curve, poor fit]

Cc1nc2cc(C(=O)N3CCC4(CC3)OCCO4)ccc2n1-c1cccc(F)c1
AC50 [1]: 0.0116 µM [rising, full curve, poor fit]

O=c1c2ccccc2[nH]c(=S)n1-c1ccc(Br)cc1
AC50 [1]: 2.24 µM [falling, full curve]

Cc1nnc2ccc(N3CCN(C)CC3)nn12
AC50 [1]: 12.6 µM [rising, partial curve, poor fit]
